For one substance, binding results are on record in publication PMC12370252.

Protein sequences, listed by entry. Tags and fused reporters are not part of them. Lines headed by an entry give the natural chain unless they say otherwise; changes in a name come on top. Chains listed by the source or under a name are the forms on record and can include a tag or linker. Residues count along the entry.
UniProt Q9UBI1: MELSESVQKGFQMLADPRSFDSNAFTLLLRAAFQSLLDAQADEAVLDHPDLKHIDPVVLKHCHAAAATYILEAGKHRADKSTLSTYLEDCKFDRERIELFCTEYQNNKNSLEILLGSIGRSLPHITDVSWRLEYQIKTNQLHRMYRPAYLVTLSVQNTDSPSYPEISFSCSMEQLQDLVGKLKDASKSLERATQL
N-terminal domain (NTD) of human COMMD3 fused to mCherry and 3xFLAG, as used in the proteomic experiment: residues 1-124 of Q9UBI1
C-terminal domain (CTD) of human COMMD3 with N-terminal mCherry and C-terminal 3xFLAG: residues 125-195 of Q9UBI1
UniProt P84077: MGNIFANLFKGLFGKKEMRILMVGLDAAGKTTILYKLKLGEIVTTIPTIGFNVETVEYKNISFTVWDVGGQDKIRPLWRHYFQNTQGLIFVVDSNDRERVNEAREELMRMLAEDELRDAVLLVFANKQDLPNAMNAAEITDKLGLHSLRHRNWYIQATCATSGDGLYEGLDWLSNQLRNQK

Common to all, as to assay: affinity purification with mass spectrometry; FL COMMD3, NTD and CTD (tagged with mCherry and 3xFLAG) individually expressed and isolated by co-IP from cell extracts (IP buffer: 25 mM HEPES pH 7.4, 138 mM NaCl, 10 mM Na3PO4, 2.7 mM KCl, 0.5% CHAPS, 1 mM DTT; protein A/G beads); associated proteins identified by mass spectrometry, compared with vector control
The target of assay [1] is N-terminal domain (NTD) of human COMMD3 fused to mCherry and 3xFLAG, as used in the proteomic experiment (human) (UniProt Q9UBI1).
Assay [2] has as its target full-length (FL) human COMMD3 fused to mCherry and 3xFLAG (human) (UniProt Q9UBI1).
The target of assay [3] is C-terminal domain (CTD) of human COMMD3 with N-terminal mCherry and C-terminal 3xFLAG (human) (UniProt Q9UBI1).

Results are given in words; binding and its absence hold for the method and conditions named. Binding seen in cells or lysates may run through a third protein. These calls come from enrichment with a bait or labelling near it, and not all partners need be listed. For part of these data: No binding means not detected with the bait.

Regarding “ADP-ribosylation factor 1 (ARF1), found by mass spectrometry in COMMD3 immunoprecipitates (from UniProt P84077 1-181)”, the results for the binding result in assay [1], in assay [2] and in assay [3] were “binds”, “binds” and “no binding”, respectively.
